Publication PMC8169757
Results are given in words; binding and its absence hold for the method and conditions named. For part of these data: Binding seen in cells or lysates may run through a third protein.

Protein sequences, listed by entry. Tags and fused reporters are not part of them. Lines headed by an entry give the natural chain unless they say otherwise; changes in a name come on top. Chains listed by the source or under a name are the forms on record and can include a tag or linker.
UniProt P06748: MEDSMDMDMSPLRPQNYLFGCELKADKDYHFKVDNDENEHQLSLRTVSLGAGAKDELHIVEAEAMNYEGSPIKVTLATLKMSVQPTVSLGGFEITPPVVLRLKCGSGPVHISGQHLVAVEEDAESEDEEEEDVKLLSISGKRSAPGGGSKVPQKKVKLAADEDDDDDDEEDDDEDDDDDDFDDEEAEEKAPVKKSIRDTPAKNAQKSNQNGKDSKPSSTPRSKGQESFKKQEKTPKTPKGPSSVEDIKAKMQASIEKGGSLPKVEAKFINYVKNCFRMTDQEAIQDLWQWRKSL
purified human NPM1-214A/217A mutant protein (P06748, form named): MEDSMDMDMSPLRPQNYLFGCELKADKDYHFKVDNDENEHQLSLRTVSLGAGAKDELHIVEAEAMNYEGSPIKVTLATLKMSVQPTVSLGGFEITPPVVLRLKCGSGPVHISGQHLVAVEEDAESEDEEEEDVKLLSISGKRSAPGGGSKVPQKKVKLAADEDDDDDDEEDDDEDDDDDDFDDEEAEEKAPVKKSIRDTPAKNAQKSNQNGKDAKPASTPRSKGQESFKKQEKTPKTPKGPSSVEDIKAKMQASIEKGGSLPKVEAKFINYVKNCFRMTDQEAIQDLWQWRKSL

How the values were obtained:
[1] = target: GFP- and mCherry-tagged NPM1 (full-length), exogenously expressed in HUH7 cells (human) (UniProt P06748); test: FRET or BRET; FLIM-FRET as a3, but in HUH7 cells transfected with LETN siRNA (LETN knockdown)
[2] = target: purified human NPM1-214A/217A mutant protein (human) (UniProt P06748); test: native gel or EMSA; in vitro NPM1 oligomerization assay: purified NPM1 sonicated in binding buffer (50 mM Tris pH 7.4, 150 mM NaCl, 0.5% NP-40), incubated at RT with the in vitro transcribed first ~2000 nt of LETN, 10% native PAGE, anti-NPM1 blot; both purified
[3] = target: purified human NPM1-214A/217A mutant protein (human) (UniProt P06748); test: native gel or EMSA; in vitro NPM1 oligomerization assay as a5 but without functional LETN (no RNA, scrambled RNA of similar length, or LETN lacking the three NPM1-binding fragments); both purified

Substance | binding [1] | binding [2] | binding [3]
GFP- and mCherry-tagged NPM1 (full-length), exogenously expressed in HUH7 cells (from UniProt P06748 1-294) | no binding (condition: LETN knockdown) |  | 
purified human NPM1-214A/217A mutant protein (from UniProt P06748 1-294) |  | no binding | no binding
